These are yes or no findings as the source states them, for the method shown. Binding seen in cells or lysates may run through a third protein. A yes stands for co-enrichment or nearness to the bait. Other partners may have been found.
Target: GST fused to the WT cytosolic tail of APP (649-695) (UniProt P05067)
Experiment: affinity purification with mass spectrometry; GST-APP tail (or GST only) on glutathione-Sepharose beads, incubated overnight at 4 °C with pre-cleared HEK293T lysate in 50 mM Tris pH 7.4, 150 mM NaCl, 1 mM EDTA, 5 mM 2-mercaptoethanol, 1% triton-X100; eluted with […] NaCl; LC-MS/MS; three independent experiments; only the target purified

Protein sequences, listed by entry. Tags and fused reporters are not part of them.
UniProt Q7Z4V5: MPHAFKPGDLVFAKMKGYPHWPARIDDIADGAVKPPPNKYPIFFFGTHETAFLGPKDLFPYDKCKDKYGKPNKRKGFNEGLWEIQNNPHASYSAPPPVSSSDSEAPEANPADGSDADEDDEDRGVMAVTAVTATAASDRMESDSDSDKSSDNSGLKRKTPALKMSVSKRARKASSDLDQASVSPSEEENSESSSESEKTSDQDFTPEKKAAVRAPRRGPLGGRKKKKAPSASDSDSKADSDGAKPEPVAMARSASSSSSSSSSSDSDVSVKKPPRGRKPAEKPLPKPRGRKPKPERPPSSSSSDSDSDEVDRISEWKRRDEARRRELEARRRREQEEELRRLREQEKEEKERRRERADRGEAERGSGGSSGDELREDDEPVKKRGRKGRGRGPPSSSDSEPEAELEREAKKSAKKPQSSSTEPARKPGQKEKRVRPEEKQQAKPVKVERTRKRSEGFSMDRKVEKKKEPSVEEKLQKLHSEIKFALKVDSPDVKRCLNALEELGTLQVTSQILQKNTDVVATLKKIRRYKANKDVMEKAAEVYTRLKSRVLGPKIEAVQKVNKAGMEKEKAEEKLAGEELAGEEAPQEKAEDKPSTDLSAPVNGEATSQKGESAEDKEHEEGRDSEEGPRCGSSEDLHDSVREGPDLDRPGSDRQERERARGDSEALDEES
UniProt Q9Y2A7: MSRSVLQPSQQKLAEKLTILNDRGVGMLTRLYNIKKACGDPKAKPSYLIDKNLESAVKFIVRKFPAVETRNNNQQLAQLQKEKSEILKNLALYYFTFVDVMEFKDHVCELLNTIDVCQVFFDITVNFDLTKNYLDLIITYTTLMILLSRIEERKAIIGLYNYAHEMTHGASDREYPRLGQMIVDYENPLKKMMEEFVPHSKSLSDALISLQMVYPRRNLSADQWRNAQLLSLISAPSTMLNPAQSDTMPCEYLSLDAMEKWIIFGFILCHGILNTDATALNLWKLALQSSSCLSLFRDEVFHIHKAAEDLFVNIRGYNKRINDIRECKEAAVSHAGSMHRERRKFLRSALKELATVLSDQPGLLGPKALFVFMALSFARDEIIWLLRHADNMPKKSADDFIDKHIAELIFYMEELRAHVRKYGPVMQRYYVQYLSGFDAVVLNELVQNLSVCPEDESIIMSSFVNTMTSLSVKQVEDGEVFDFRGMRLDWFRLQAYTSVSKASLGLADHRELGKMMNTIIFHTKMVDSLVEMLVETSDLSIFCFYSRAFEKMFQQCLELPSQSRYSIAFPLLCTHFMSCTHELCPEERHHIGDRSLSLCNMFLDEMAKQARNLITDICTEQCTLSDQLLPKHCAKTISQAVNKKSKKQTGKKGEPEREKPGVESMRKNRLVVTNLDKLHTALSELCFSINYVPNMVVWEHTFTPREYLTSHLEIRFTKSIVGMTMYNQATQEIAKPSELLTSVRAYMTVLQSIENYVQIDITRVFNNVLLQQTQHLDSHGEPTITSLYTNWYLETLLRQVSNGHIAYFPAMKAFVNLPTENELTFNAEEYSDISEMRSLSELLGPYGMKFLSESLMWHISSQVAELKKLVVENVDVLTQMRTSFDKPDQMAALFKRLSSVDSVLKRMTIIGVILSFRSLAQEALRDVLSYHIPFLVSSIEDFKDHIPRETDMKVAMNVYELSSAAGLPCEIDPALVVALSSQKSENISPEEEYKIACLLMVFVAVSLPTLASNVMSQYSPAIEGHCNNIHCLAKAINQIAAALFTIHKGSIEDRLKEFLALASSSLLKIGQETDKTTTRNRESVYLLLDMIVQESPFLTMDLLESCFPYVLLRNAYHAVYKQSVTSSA
UniProt P49757: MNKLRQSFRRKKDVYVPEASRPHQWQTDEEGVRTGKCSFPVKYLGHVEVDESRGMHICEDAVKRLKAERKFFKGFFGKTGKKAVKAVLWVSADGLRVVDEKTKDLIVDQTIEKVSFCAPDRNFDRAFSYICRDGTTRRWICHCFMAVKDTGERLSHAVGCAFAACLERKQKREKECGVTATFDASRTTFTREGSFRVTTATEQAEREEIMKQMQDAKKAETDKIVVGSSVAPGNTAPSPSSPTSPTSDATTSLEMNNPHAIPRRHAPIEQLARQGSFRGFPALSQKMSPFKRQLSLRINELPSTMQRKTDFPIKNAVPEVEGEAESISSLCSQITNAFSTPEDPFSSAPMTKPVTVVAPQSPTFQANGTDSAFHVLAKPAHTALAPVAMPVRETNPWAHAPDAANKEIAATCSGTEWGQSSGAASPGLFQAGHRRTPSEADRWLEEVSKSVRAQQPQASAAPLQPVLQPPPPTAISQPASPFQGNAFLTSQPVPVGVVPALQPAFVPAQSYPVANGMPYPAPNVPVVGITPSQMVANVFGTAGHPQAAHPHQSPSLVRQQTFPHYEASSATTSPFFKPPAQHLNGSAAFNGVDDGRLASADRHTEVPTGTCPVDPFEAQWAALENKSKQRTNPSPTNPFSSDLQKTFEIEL
UniProt Q9NR12: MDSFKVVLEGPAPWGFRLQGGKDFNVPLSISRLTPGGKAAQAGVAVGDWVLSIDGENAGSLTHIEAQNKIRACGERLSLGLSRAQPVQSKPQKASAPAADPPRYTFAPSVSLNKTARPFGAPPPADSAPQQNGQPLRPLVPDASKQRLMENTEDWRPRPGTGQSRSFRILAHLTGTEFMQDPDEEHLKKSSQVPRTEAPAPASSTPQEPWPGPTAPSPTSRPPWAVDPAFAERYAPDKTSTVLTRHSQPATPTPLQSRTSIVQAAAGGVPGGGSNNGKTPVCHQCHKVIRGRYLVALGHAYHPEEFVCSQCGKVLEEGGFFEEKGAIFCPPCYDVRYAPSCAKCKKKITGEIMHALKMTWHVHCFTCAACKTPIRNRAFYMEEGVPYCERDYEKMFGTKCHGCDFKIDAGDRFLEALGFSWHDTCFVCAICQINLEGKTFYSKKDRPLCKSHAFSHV
UniProt Q9Y3P9: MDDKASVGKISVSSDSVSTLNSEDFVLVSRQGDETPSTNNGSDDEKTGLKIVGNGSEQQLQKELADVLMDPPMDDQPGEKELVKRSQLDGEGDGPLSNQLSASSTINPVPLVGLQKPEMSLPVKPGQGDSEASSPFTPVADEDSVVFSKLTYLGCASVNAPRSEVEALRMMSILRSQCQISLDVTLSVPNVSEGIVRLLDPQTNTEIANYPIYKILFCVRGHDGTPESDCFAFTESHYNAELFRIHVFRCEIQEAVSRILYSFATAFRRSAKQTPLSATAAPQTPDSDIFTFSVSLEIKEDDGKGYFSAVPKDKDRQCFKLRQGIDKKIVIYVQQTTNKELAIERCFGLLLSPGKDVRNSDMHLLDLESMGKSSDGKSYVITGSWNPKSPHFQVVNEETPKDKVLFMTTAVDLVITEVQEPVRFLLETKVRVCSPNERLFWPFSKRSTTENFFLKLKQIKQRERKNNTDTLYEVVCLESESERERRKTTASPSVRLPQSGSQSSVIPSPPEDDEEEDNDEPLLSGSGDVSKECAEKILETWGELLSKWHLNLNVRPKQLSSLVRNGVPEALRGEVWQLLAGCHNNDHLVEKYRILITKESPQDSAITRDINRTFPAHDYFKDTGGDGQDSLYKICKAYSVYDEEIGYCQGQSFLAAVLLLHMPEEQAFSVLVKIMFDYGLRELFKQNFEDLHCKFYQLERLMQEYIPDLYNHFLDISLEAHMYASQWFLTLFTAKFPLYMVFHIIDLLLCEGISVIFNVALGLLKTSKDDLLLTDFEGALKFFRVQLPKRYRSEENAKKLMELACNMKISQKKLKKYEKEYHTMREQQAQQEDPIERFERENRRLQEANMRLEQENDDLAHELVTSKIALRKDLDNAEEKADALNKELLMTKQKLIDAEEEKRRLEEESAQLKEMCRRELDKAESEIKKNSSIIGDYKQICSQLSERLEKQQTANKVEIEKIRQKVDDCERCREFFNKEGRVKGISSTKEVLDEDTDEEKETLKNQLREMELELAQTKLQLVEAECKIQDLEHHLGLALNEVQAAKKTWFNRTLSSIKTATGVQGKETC
UniProt Q4G0F5: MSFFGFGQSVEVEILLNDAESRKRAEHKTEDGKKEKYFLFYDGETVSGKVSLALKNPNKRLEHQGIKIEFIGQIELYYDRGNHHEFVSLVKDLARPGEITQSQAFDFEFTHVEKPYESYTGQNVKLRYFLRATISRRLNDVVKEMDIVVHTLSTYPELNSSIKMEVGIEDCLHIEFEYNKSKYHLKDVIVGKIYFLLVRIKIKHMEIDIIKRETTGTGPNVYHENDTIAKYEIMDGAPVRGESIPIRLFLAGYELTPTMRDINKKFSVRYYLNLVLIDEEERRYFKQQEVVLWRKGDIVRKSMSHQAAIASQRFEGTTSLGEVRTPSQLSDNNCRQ

| binding | Substance |
| --- | --- |
| binds | HDGFL2 (from UniProt Q7Z4V5 1-671) |
| binds | NCKAP1 (from UniProt Q9Y2A7 1-1128) |
| binds | NUMB (from UniProt P49757 1-651) |
| binds | PDLIM7 (from UniProt Q9NR12 1-457) |
| binds | RABGAP1 (from UniProt Q9Y3P9 1-1069) |
| binds | VPS26A (from UniProt O75436 1-327) |
| binds | VPS26B (from UniProt Q4G0F5 1-336) |
